Laboratory results published in the supplement of paper PMC7024190.
Where a name gives a salt, the structure may show the parent alone. The list shows a part of the results. This data set is noisy: repeats of one test often differ as much as different tests do.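 The cells were human embryonic kidney cells carrying a Renilla luciferase gene, driven by the HSV-TK promoter, on a plasmid put in briefly by transfection. This is the first-round screen of about ten thousand compounds, looking for ones that raise reporter output.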

What follows are molecules tested on HEK 293FT (assay: log relative Renilla luciferase luminescence (reporter expression vs reference, reference not stated) (log (base not stated)); higher = higher recombinant reporter expression). Settings: 10 µM; time after transfection 48 h.

Compound	log
COc1ccc(Nc2ncnc3ccc(OC)cc23)cc1 [MPMQ hydrochloride]	-0.146
CC(=O)NCCc1c(Cc2ccccc2)[nH]c2ccccc12 [Luzindole]	-0.0942
O=C(O)C(=O)O.[NH-][C@@H]1CCCC[C@H]1[NH-].[Pt+2] [Oxaliplatin]	-0.012
CN(CCOc1ccc(C[C@H](Nc2ccccc2C(=O)c2ccccc2)C(=O)O)cc1)c1ccccn1	0.181
COC(=O)C1=C(C)NC(C)=C(C(=O)OCCCN2CCC(c3ccccc3)(c3ccccc3)CC2)[C@H]1c1cccc([N+](=O)[O-])c1 [(S)-(+)-Niguldipine hydrochloride]	0.06
CCc1ccc(OCc2ccccc2C(=O)Nc2ccc3nc(C)cc(N)c3c2)cc1	-0.155
CCCCC/N=c1\ccn(Cc2ccccc2)c2ccccc12	-0.224
NS(=O)(=O)c1cc2c(cc1Cl)NC(C1CC3C=CC1C3)NS2(=O)=O (centres undefined) [Cyclothiazide]	-0.0659
CCCCCCC(=O)OC1CC(C)(C)NC(C)(C)C1 [TMPH hydrochloride]	-0.0154
Cc1cccc(/C=C/c2ccccc2)n1	0.0553
CCOC(=O)C1=C(N)Oc2ccc(Br)cc2C1C(C#N)C(=O)OCC (centres undefined)	-0.0404
CN1CCN(C2=Cc3ccccc3Oc3ccc(Cl)cc32)CC1	0.0419
Cc1ccc(OCC(O)C(C)NC(C)C)c2c1CCC2 (centres undefined) [ICI-118,551 hydrochloride]	0.0692
COc1ccc(CCN(C)CCCOc2ccc(S(=O)(=O)c3c(C(C)C)c4ccccc4n3C)cc2)cc1OC	-0.0323
CSc1cc2c(cc1C(F)(F)F)N(C(=O)Nc1cccnc1)CC2	-0.0684
N#Cc1cc2nc(O)c(O)nc2cc1[N+](=O)[O-] [CNQX disodium salt]	0.188
c1nc(CC2CCNCC2)c[nH]1 [Immepip dihydrobromide]	-0.00432
O=S(=O)(c1cccc2c(Cl)cccc12)N1CCCNCC1 [ML 9 hydrochloride]	0.108
CC(C)(C(=O)O)c1ccc(C(O)CCCN2CCC(C(O)(c3ccccc3)c3ccccc3)CC2)cc1 (centres undefined) [Fexofenadine hydrochloride]	-0.0293
CNc1cc(OC)c(C(=O)NC2CCN(Cc3ccccc3)C2C)cc1Cl (centres undefined) [Nemonapride]	0.0616

Compound	log
CC(NC(=O)c1ccccc1/N=C/c1c(O)ccc2ccccc12)c1ccccc1 (centres undefined) [Sirtinol]	-0.00841
O=C(COc1cccc2c(=O)[nH]ccc12)c1ccccc1	-0.14
CN(C)C(=O)n1nnnc1Cc1ccc(-c2ccccc2)cc1	-1.1
O=c1nc2ccccc2c2n1CC(CN1CCN(c3ccccc3)CC1)N2 (centres undefined)	0.0792
Oc1ccc(-c2c(-c3ccccc3)nn3c(C(F)(F)F)cc(C(F)(F)F)nc23)cc1	-0.0566
COc1ccc(Cl)cc1NC(=O)Nc1cc(C)nc2ccccc12	-0.0206
CC12CC3CC(C)(C1)CC(N)(C3)C2 [Memantine hydrochloride]	0.023
C[C@@H](CN1CC(=O)NC(=O)C1)N1CC(=O)NC(=O)C1 [Dexrazoxane hydrochloride]	-0.0358
O=C(Cc1ccccc1)Nc1nc2ccc(Cl)cc2c2nc(-c3ccco3)nn12	0.2
O=C(O)C1(C(=O)O)CCC1.[NH2-].[NH2-].[Pt+2] [Carboplatin]	-0.0758
N=C(N)c1ccc(N2CCN(C3CCN(CC(=O)O)CC3)CC2)cc1	-0.132
O=C1C(=O)N(Cc2ccc(Cl)c(Cl)c2)c2ccccc21 [Apoptosis Activator 2]	-0.012
CC1c2ccccc2CN1CC1=NCCN1 (centres undefined)	0.0889
c1ccc2cc(C3=NCCN3)ncc2c1 [BU 226 hydrochloride]	-0.00758
CCCNC(=O)N1N=C(c2ccc(N)cc2)c2cc3c(cc2C1C)OCO3 (centres undefined)	0.0792
COC(=O)C1=C(C)NC(C)=C([N+](=O)[O-])C1c1ccccc1C(F)(F)F (racemic)	0.0254
Cc1ccc(NC(=O)C(C)C)cc1C1CCN(Cc2ccc(Oc3ccc(F)c(F)c3)cc2)CC1	-0.0449
NCCCCCCCCCCNS(=O)(=O)c1cccc2c(Cl)cccc12 [A-7 hydrochloride]	0.157
NCC(O)(CS(=O)(=O)O)c1ccc(Cl)cc1 (centres undefined) [2-Hydroxysaclofen]	-0.732

10 structures from above, ordered by molar mass, low to high.
Compound	log
CC12CC3CC(C)(C1)CC(N)(C3)C2 [Memantine hydrochloride]	0.023
CC1c2ccccc2CN1CC1=NCCN1 (centres undefined)	0.0889
N#Cc1cc2nc(O)c(O)nc2cc1[N+](=O)[O-] [CNQX disodium salt]	0.188
Cc1ccc(OCC(O)C(C)NC(C)C)c2c1CCC2 (centres undefined) [ICI-118,551 hydrochloride]	0.0692
O=C(COc1cccc2c(=O)[nH]ccc12)c1ccccc1	-0.14
CN(C)C(=O)n1nnnc1Cc1ccc(-c2ccccc2)cc1	-1.1
CN1CCN(C2=Cc3ccccc3Oc3ccc(Cl)cc32)CC1	0.0419
COC(=O)C1=C(C)NC(C)=C([N+](=O)[O-])C1c1ccccc1C(F)(F)F (racemic)	0.0254
O=c1nc2ccccc2c2n1CC(CN1CCN(c3ccccc3)CC1)N2 (centres undefined)	0.0792
COC(=O)C1=C(C)NC(C)=C(C(=O)OCCCN2CCC(c3ccccc3)(c3ccccc3)CC2)[C@H]1c1cccc([N+](=O)[O-])c1 [(S)-(+)-Niguldipine hydrochloride]	0.06
